# Data published in paper PMC8486766.
# No constants are given. Whether binding was seen depends on the method and setting. In cells and extracts the contact can be indirect.
# Target: FLAG-tagged full-length (FL) MeCP2 (human) (UniProt P51608)
# Experiment: co-IP; FLAG M2 agarose, HMW extract (Benzonase-treated) of HEK293T cells expressing FLAG-MeCP2, 4 °C 3 h, washes with 300 mM NaCl and 0.1% NP-40; western blot
substance,measurement,value
hnRNP K (from UniProt P61978 1-463),binding,no binding
